According to patent publication EP0528486A2, “Non-substrate inhibitors of farnesyl protein transferase” (MERCK & CO. INC., priority 1991, dated 1993):
At least one peptide structure holds a part that was inferred or is arguable (an end, a ring closure or a residue). Where a SMILES comes first, the peptide text is derived from it.

Biological target: T1, farnesyl-protein transferase (Bos taurus, UniProt P29702+P49355)
T1 construct: partially pure bovine brain farnesyl-protein transferase; from tissue; host or cells: bovine brain (cerebral lobes)
Assay: Tetrapeptides tested as farnesylation substrates (TLC / autoradiography)
Assay type: biochemical
Details: peptide 200 µM, partially pure bovine farnesyl-protein transferase, 0.5 µM [3H] FPP, 30 min. at 30°C
Description: When a peptide was used as the acceptor substrate, there were two changes to the assay: (1) Ras protein was excluded and, (2) the reactions were stopped by the additon of one tenth volume of 0.5 M EDTA. A portion of the reaction mixture was spotted onto a TLC plate (silica gel 60 thin layer chromatography plates (20 cm x 20 cm, 0.25 mm layer thickness) were from E. Merck (Darrnstadt) and eluted with either ethyl acetate:pyridine: acetic acid:water (10:5:1:3) or n-propanol:water (7:3) elution systems. After drying under vacuum, the plates were sprayed with En³Hance and exposed to X-ray film at -70°C.
CAAX tetrapeptides and other tetrapeptides including Cys-Xaa¹-Xaa²-Xaa³-NRR¹ were tested as farnesylation substrates using [³H]FPP and partially pure bovine brain farnesyl-protein transferase. […] Thin layer chromatography (TLC) conditions were developed which resolved the substrates farnesyl diphosphate (Rf = 0.06) and CVLS (Rf = 0.28) and product S-farnesyl-CVLS (Rf = 0.58). These Rf values reflect TLC conditions using ethylacetate:pyridine: acetic acid:water (10:5:1:3) as the eluent. In another elution system, n-propanol:water (7:3), farnesyl-diphosphate (Rf= 0.18) was readily seperated from farnesylated tetrapeptides (examples: CAIS (Rf=0.84) and CAIM (Rf=0.83)). […]

CC(C)C[C@H](NC(=O)[C@@H](NC(=O)[C@@H](N)CO)C(C)C)C(=O)N[C@@H](CO)C(=O)O [SVLS, reference compound] (H-SVLS-OH)
Farnesylation Substrate: - (< 1% conversion)
